Measured values reported in patent publication US9260534B2 (priority 2010, dated 2016).

Assay: general procedure: Fmoc solid-phase peptide synthesis; Rink-amide resin; HBTU-HOBt
Conditions: whole synthesis, scale 0.25 mmol

[Cys^21]Exendin-4
crude mass: 719 mg
